Assay results published in publication PMC8898371.
These are yes or no findings as the source states them, for the method shown. In cells and extracts the contact can be indirect.

Sequences of proteins named here, by UniProt entry; tags and fusion partners are left off. A change or cut given only in a name is not applied to a line headed by its entry. Residues count along the entry.
UniProt Q8TE04: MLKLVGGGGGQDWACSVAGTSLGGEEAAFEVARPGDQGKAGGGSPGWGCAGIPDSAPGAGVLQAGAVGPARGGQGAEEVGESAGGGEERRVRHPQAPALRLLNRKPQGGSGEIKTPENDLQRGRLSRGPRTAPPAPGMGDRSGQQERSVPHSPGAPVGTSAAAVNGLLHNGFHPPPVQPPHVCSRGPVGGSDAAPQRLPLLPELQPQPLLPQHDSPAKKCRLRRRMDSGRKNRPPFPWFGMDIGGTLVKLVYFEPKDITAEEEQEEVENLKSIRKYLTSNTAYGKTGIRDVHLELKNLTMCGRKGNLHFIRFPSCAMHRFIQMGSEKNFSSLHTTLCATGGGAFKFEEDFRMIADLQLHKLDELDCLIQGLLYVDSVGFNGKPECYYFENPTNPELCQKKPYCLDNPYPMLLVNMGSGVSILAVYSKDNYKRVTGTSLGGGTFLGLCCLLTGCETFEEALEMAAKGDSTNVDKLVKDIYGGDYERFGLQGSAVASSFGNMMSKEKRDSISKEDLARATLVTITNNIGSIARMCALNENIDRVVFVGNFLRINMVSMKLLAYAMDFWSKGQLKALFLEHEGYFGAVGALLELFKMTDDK
UniProt O15169: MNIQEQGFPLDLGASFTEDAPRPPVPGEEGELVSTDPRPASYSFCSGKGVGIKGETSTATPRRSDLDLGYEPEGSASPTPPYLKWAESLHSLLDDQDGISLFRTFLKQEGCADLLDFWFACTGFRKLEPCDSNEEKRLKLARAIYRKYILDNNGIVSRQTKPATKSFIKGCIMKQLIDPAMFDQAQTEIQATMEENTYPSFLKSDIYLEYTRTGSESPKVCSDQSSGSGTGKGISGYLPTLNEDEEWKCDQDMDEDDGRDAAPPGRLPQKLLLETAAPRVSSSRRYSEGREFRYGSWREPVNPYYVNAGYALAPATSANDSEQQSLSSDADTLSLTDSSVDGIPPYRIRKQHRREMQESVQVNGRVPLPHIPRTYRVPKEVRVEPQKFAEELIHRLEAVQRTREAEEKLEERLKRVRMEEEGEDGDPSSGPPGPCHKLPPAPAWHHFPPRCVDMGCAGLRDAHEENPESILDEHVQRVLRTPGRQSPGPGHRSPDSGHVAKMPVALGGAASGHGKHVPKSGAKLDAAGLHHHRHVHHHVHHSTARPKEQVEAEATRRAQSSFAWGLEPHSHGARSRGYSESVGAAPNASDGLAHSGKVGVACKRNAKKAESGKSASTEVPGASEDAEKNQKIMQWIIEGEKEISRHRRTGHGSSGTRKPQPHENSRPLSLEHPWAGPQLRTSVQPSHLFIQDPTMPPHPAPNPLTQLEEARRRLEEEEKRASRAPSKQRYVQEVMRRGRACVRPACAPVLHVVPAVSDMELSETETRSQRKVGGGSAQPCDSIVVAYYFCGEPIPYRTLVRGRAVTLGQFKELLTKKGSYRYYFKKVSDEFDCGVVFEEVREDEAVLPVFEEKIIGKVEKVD
UniProt P49841: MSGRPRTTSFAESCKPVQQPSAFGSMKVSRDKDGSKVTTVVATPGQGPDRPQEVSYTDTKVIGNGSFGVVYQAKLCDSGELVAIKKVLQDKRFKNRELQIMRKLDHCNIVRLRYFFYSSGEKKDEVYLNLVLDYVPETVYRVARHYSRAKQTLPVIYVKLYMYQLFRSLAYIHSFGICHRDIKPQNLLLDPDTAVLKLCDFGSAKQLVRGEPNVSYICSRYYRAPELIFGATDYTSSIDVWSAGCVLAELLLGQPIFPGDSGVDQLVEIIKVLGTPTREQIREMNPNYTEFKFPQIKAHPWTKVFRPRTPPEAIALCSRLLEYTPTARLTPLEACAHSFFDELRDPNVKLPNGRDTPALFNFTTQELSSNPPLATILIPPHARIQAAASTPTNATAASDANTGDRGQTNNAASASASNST
UniProt P35222: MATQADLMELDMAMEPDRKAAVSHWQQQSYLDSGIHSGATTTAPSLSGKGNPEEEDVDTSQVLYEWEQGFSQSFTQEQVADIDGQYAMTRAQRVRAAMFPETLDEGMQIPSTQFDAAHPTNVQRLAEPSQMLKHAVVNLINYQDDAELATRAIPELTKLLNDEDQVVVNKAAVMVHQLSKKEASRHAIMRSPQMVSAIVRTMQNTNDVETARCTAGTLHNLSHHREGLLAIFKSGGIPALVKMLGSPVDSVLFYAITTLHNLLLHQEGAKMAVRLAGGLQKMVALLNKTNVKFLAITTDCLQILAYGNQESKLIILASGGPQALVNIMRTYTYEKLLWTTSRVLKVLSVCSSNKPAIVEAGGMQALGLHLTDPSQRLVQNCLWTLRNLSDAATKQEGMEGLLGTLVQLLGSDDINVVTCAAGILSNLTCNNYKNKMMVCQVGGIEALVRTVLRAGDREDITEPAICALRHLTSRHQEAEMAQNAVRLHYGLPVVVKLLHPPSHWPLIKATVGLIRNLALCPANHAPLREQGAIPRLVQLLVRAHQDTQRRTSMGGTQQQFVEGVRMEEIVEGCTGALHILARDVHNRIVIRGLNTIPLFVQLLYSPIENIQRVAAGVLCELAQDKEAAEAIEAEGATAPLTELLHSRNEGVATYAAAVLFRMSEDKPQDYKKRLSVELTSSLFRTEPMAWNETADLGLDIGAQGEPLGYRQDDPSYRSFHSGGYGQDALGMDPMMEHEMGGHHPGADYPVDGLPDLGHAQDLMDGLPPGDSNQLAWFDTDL
UniProt Q68DV7, residues 24-783: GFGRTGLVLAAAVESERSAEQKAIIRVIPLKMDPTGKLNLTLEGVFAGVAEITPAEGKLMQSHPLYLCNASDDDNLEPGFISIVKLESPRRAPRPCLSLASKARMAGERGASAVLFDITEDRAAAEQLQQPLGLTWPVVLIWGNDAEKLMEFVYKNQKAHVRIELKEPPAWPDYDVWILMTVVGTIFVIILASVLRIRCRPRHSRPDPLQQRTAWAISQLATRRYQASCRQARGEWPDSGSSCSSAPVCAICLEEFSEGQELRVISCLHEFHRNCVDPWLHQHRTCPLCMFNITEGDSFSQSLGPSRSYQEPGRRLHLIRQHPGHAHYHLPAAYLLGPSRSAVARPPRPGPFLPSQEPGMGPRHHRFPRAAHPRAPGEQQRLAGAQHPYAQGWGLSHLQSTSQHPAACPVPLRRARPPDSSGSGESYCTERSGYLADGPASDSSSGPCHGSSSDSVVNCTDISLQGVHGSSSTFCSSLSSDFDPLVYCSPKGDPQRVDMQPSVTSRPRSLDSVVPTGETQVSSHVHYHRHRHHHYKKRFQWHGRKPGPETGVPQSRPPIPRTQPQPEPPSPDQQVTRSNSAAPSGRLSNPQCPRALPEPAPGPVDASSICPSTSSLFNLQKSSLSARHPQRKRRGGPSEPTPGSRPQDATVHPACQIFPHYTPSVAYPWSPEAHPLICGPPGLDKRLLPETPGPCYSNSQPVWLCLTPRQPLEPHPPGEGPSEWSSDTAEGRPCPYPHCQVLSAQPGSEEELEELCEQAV

Biological target: PANK1 as tested against other components of the Wnt/β-catenin pathway (Figure S3A-F) (UniProt Q8TE04)
Assay: co-IP; PANK1 with other components of the Wnt/β-catenin pathway, Figure S3A-F; cells, tags and bait not told in the text shown

binding | Substance
no binding | AXIN1 (from UniProt O15169 1-862)
no binding | GSK3β (from UniProt P49841 1-420)
no binding | β-catenin (from UniProt P35222 1-781)
no binding | RNF43 (from UniProt Q68DV7 24-783)
